Reference: patent publication US20250298027A1, “METHOD OF EVALUATING SMALL MOLECULE DISTRIBUTION USING TELLUROPHENE ANALOGUES” (THE GOVERNING COUNCIL OF THE UNIVERSITY OF TORONTO, priority 2022, published 2025)
Some entries share one result that the patent states for a list of compounds.

Test system: PANC-1 cells
Assay: IncuCyte ZOOM cellular proliferation assay in PANC-1 cells
Type: cell-based, Human
Conditions: 100-hour incubation, cell confluency

## COc1cc([C@@H]2c3cc4c(cc3[C@@H](O[C@@H]3O[C@@H]5CO[C@@H](c6cccs6)O[C@H]5[C@H](O)[C@H]3O)[C@H]3COC(=O)[C@H]23)OCO4)cc(OC)c1O [teniposide, reference compound]
  concentration resulting in substantial reduction in PANC-1 cell proliferation: above 0.1 μM
